Common to all, as to assay: glycan array binding signal (z-score within array); higher = stronger binding
What all share (conditions): glycan notation: IUPAC condensed, linker removed

Test [1] addresses Gal(b1-4)GlcNAc(b1-3)Gal(b1-4)GlcNAc(b1-3)Gal(b1-4)GlcNAc(b1-3)Gal(b1-4)GlcNAc(b1-2)Man(a1-3)[Gal(b1-4)GlcNAc(b1-3)Gal(b1-4)GlcNAc(b1-3)Gal(b1-4)GlcNAc(b1-3)Gal(b1-4)GlcNAc(b1-2)Man(a1-6)]Man(b1-4)GlcNAc(b1-4)GlcNAc. In a few lines:
(§1)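 Columns mapping to the same glycan were averaged after glycan names were converted to IUPAC-condensed notation. The data come from 3228 arrays in the Consortium for Functional Glycomics database, limited to those with an available protein sequence. Binding is reported as a within-array Z-score averaged across arrays of one protein sequence and across linkers.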

The target of test [2] is Gal(b1-4)GlcNAc(b1-3)Gal(b1-4)GlcNAc(b1-3)Gal(b1-4)GlcNAc(b1-3)Gal(b1-4)GlcNAc(b1-2)Man(a1-3)[Gal(b1-4)GlcNAc(b1-3)Gal(b1-4)GlcNAc(b1-3)Gal(b1-4)GlcNAc(b1-3)Gal(b1-4)GlcNAc(b1-2)Man(a1-6)]Man(b1-4)GlcNAc(b1-4)[Fuc(a1-6)]GlcNAc. In a few lines:
as §1

Test [3] addresses Gal(b1-4)GlcNAc(b1-3)Gal(b1-4)GlcNAc(b1-3)Gal(b1-4)GlcNAc(b1-3)Gal(b1-4)GlcNAc(b1-2)[Gal(b1-4)GlcNAc(b1-3)Gal(b1-4)GlcNAc(b1-3)Gal(b1-4)GlcNAc(b1-3)Gal(b1-4)GlcNAc(b1-6)]Man(a1-6)[Gal(b1-4)GlcNAc(b1-3)Gal(b1-4)GlcNAc(b1-3)Gal(b1-4)GlcNAc(b1-3)Gal(b1-4)GlcNAc(b1-2)Man(a1-3)]Man(b1-4)GlcNAc(b1-4)[Fuc(a1-6)]GlcNAc. In a few lines: as §1
Test [4] addresses Gal(b1-4)GlcNAc(b1-3)Gal(b1-4)GlcNAc(b1-3)Gal(b1-4)GlcNAc(b1-3)Gal(b1-4)GlcNAc(b1-3)Gal(b1-4)GlcNAc(b1-2)Man(a1-3)[Gal(b1-4)GlcNAc(b1-3)Gal(b1-4)GlcNAc(b1-3)Gal(b1-4)GlcNAc(b1-3)Gal(b1-4)GlcNAc(b1-3)Gal(b1-4)GlcNAc(b1-2)Man(a1-6)]Man(b1-4)GlcNAc(b1-4)GlcNAc. The essentials:
as §1

The target of test [5] is Gal(b1-4)GlcNAc(b1-3)Gal(b1-4)GlcNAc(b1-3)Gal(b1-4)GlcNAc(b1-3)Gal(b1-4)GlcNAc(b1-3)Gal(b1-4)GlcNAc(b1-2)Man(a1-3)[Gal(b1-4)GlcNAc(b1-3)Gal(b1-4)GlcNAc(b1-3)Gal(b1-4)GlcNAc(b1-3)Gal(b1-4)GlcNAc(b1-3)Gal(b1-4)GlcNAc(b1-2)Man(a1-6)]Man(b1-4)GlcNAc(b1-4)[Fuc(a1-6)]GlcNAc. The essentials: as §1
Test [6] addresses Gal(b1-4)GlcNAc(b1-3)Gal(b1-4)GlcNAc(b1-3)Gal(b1-4)GlcNAc(b1-3)Gal(b1-4)GlcNAc(b1-3)Gal(b1-4)GlcNAc(b1-2)[Gal(b1-4)GlcNAc(b1-3)Gal(b1-4)GlcNAc(b1-3)Gal(b1-4)GlcNAc(b1-3)Gal(b1-4)GlcNAc(b1-3)Gal(b1-4)GlcNAc(b1-6)]Man(a1-6)[Gal(b1-4)GlcNAc(b1-3)Gal(b1-4)GlcNAc(b1-3)Gal(b1-4)GlcNAc(b1-3)Gal(b1-4)GlcNAc(b1-3)Gal(b1-4)GlcNAc(b1-2)Man(a1-3)]Man(b1-4)GlcNAc(b1-4)[Fuc(a1-6)]GlcNAc. The essentials: as §1

In test [7] the target is Gal(b1-4)GlcNAc(b1-3)Gal(b1-4)GlcNAc(b1-3)Gal(b1-4)GlcNAc(b1-3)Gal(b1-4)GlcNAc(b1-3)Gal(b1-4)GlcNAc(b1-3)Gal(b1-4)GlcNAc(b1-2)Man(a1-3)[Gal(b1-4)GlcNAc(b1-3)Gal(b1-4)GlcNAc(b1-3)Gal(b1-4)GlcNAc(b1-3)Gal(b1-4)GlcNAc(b1-3)Gal(b1-4)GlcNAc(b1-3)Gal(b1-4)GlcNAc(b1-2)Man(a1-6)]Man(b1-4)GlcNAc(b1-4)GlcNAc. In a few lines:
as §1

Test [8] has as its target Gal(b1-4)GlcNAc(b1-3)Gal(b1-4)GlcNAc(b1-3)GalNAc. In a few lines:
as §1

Test [9] concerns the target Gal(b1-4)GlcNAc(b1-3)Gal(b1-4)GlcNAc(b1-3)[Gal(b1-4)GlcNAc(b1-3)Gal(b1-4)GlcNAc(b1-6)]GalNAc. The essentials:
as §1

The target of test [10] is Gal(b1-4)GlcNAc(b1-3)Gal(b1-4)GlcNAc(b1-6)[Gal(b1-3)]GalNAc. In a few lines: as §1
The target in test [11] is Gal(b1-4)GlcNAc(b1-3)Gal(b1-4)[Fuc(a1-3)]GlcNAc(b1-3)Gal(b1-4)[Fuc(a1-3)]GlcNAc. The essentials:
as §1

The target in test [12] is Gal(b1-4)GlcNAc(b1-3)GalNAc. The essentials:
as §1

Test [13] deals with Gal(b1-4)GlcNAc(b1-3)[Fuc(a1-3)GlcNAc(b1-6)]Gal(b1-4)Glc. The essentials:
as §1

Test [14] has as its target Gal(b1-4)GlcNAc(b1-3)[Gal(b1-4)GlcNAc(b1-6)]Gal(b1-4)GlcNAc. In a few lines:
as §1

Test [15] deals with Gal(b1-4)GlcNAc(b1-3)[GlcNAc(b1-6)]Gal(b1-4)GlcNAc. The essentials:
as §1

The target in test [16] is Gal(b1-4)GlcNAc(b1-6)Gal(b1-4)GlcNAc. In a few lines: as §1
For test [17], the target named is Gal(b1-4)GlcNAc(b1-6)GalNAc. In a few lines:
as §1

In test [18] the target is Gal(b1-4)GlcNAc(b1-6)[Gal(b1-3)]GalNAc. In a few lines: as §1
The target in test [19] is Gal(b1-4)GlcNAc(b1-6)[Gal(b1-4)GlcNAc(b1-3)]GalNAc. The essentials:
as §1

Test [20] deals with Gal(b1-4)GlcNAc6P. The essentials: as §1
Test [21] has as its target Gal(b1-6)Gal. The essentials: as §1
Test [22] has as its target Gal3S(b1-3)GalNAc. In a few lines: as §1
Test [23] addresses Gal3S(b1-3)GlcNAc. The essentials: as §1

We go through one molecule from the supplement of paper PMC8728848.

The other results are listed elsewhere or left out.

B1: AT3G09350(27) (Arabidopsis thaliana), Q84J81 (protein)
chain: MAKDGPNWDGLLKWSLSHADGTRPTRQLSEEDRKWFMEAMQSQTVDVVKRMKEITLVMQTPEQVLVEHGVTPEDIQDLLDELQEHVESIDMANDLHSIGGLVPLLSFLKNSHANIRAKAADVVSTIVQNNPRSQELVMETNALESLLSNFTSDTDIHARTQALGAISSLIRHNKPGVTAFKLANGYAGLRDALASDSVRFQRKALNLLQYLLQEDDSDRSIATGLGFPRVMMHLASSDDAEIREAALRGLLELSREKNDGSSSIDKSDEKLRQLLEERIKGITLMSQEDLETVKEERQLVDLLWSICYNEPSSLREKGLVVLPGEDALPPDVASKLFEPPLRASAANRNATEKKDEPMKLLGP
Regarding B1, the “glycan array binding signal (z-score)” value in [1] was 0.499; in test [2], 0.211; in [3] it was 0.578; in [4], -0.471; in test [5], -0.116; in test [6] it was -0.025. Moreover, the “glycan array binding signal (z-score)” value in test [7] was 0.331; in [8], -0.711; in test [9] it was 0.75; in [10], 0.664; in test [11], -0.124; in test [12] it was 0.107. Also, the “glycan array binding signal (z-score)” value in test [13] was -0.479; in [14], -0.6; in test [15], -0.276; in test [16] it was 3.1; in [17], 0.399; in test [18], -0.205. The “glycan array binding signal (z-score)” value in test [19] is -0.507; in [20], -0.474; in test [21], -0.033; in test [22], 0.155; in [23], -0.246.
